# From publication PMC9115032
# Chains of the proteins cited; added tags and fusions are not shown. Residues count along the entry.
# UniProt Q9NZQ7, residues 19-290: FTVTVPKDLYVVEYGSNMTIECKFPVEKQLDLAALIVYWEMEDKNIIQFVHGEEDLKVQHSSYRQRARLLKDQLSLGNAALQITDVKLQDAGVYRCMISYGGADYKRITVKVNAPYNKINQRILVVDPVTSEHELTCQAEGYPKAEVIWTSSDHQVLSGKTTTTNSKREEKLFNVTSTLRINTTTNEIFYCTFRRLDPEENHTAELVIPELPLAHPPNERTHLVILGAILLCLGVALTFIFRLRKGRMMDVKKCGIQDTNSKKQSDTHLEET
# UniProt Q9NRR5: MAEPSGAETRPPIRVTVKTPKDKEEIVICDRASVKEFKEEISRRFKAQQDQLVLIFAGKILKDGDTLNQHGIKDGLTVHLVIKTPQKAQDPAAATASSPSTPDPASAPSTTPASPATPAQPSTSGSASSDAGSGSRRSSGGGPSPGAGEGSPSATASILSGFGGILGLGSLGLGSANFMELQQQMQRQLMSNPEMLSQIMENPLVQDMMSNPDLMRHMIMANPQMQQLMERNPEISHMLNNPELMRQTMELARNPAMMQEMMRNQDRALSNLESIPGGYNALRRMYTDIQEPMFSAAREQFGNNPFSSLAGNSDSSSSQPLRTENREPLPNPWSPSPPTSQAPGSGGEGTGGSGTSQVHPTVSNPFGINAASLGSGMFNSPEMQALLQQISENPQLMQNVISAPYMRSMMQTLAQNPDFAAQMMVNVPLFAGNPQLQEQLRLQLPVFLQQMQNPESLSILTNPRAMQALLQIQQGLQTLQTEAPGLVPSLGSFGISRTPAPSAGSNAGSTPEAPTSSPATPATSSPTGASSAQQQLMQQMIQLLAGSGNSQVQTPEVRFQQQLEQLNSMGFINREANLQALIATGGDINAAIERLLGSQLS
# Results are given in words; binding and its absence hold for the method and conditions named. In cells and extracts the contact can be indirect. A yes stands for co-enrichment or nearness to the bait. Other partners may have been found.
# Target: PD-L1 (human (endogenous in A375)) (UniProt Q9NZQ7)
# Test: affinity purification with mass spectrometry; immunoprecipitates from A375 cells treated with ABZ (1.25 uM) or DMSO, separated by SDS-PAGE, silver stained, bands analysed by LC/MS-MS
substance,measurement,value
UBQLN4 (from UniProt Q9NRR5 1-601),binding,binds
